The list shows a part of the results. Shown are side measurements of this screen, not its main read-out; they come without a call. Compounds called inactive in the main read-out are mostly missing here. Words in brackets tell the shape of the fitted curve; partial curves, single points and poor fits give uncertain potencies.
Assay: qHTS Assay to Find Inhibitors of Chronic Active B-Cell Receptor Signaling
Conditions: ABC-DLBCL IkBa-CBG/CBR reporter, luminescence ratio (green luciferase fused to IkBa over red control in TMD8 lymphoma cells), 4 h
Outline: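 Concentration-response series (up to 46 uM) were applied to TMD8 dual-reporter cells for 4 h at 37C with doxycycline. Green/red ratio, after filter-overlap correction, defined %Activity; red signal alone was normalised to basal cells and zero luminescence.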

[1] = measured here: CBR red luminescence, cell number
[2] = measured here: IkBa-CBG green luminescence

Row | SMILES | AC50 [1] | AC50 [2]
1 | CC(=O)c1cccc(NC(=O)COC(=O)c2ccc(S(C)(=O)=O)c([N+](=O)[O-])c2)c1 | 15.8 µM [falling, partial curve] | 28.2 µM [rising, partial curve, poor fit]
2 | C[C@@]12C(=O)Nc3ccc(Cl)cc3C(=O)N1[C@H]1c3cc(Cl)ccc3OC[C@@H]1[C@@H]2c1ccccc1 | 29.1 µM [falling, single point] | 
3 | O=C(Nc1ccccc1)N1CCC(c2ccccc2)C1 (centres undefined) | 8.91 µM [falling, partial curve] | 
4 | O=C(/C=C/N1CCN(Cc2ccccc2)CC1)C(F)(F)F | 25.1 µM [rising, single point] | 
5 | Clc1ccc(Oc2ccccc2)c2ncccc12 | 3.98 µM [rising, partial curve, poor fit] | 
6 | COc1ccc(CNC(=O)c2cncc(Br)c2)cc1 | 11.2 µM [rising, single point] | 
7 | CCN(CC)S(=O)(=O)c1ccc2c(c1)nc(SCC(N)=O)n2-c1ccc(OC)cc1 | 3.26 µM [rising, partial curve, poor fit] | 
8 | CCN(CC)c1ccc(/C=C(/C#N)C(=O)NC(C)C)o1 | 2.82 µM [rising, partial curve, poor fit] | 
9 | O=C(/C=C/c1ccc2c(c1)OCO2)c1ccc[nH]1 | 20.6 µM [falling, single point] | 
10 | CCOc1ccc(S(=O)(=O)NN)cc1 | 0.146 µM [rising, full curve, poor fit] | 
11 | CC1CCCCN1CC(=O)Nc1sc2c(c1C#N)CCC2 (centres undefined) | 3.55 µM [rising, single point] | 
12 | COc1ccc2oc(C(=O)N3CCc4ccccc43)c(C)c2c1 | 5.62 µM [falling, single point] | 
13 | Cc1ccccc1C(=O)Nc1ccc(S(=O)(=O)N2CCN(C)CC2)cc1 | 18.4 µM [rising, single point] | 
14 | CCc1nc(N=C(N)N)nc2ccccc12 | 14.1 µM [falling, single point] | 
15 | CC(C)Cc1nc(C#N)c(N2CCC(C(N)=O)CC2)o1 | 0.92 µM [rising, partial curve, poor fit] | 
16 | COc1ccc(C(=O)Nc2c(-c3cccs3)c(=O)c3ccccc3n2C)cc1 | 20 µM [rising, partial curve, poor fit] | 
17 | O=C(Nc1nc2ccc([N+](=O)[O-])cc2s1)c1ccncc1 | 1 µM [falling, full curve] | 
18 | C=CCNC(=S)N/N=C(\C)c1ccccn1 |  | 7.31 µM [falling, partial curve, poor fit]
19 | Cc1cc(C(=O)NC2CCCc3ccccc32)ccc1[N+](=O)[O-] (centres undefined) | 35.5 µM [falling, single point] | 
20 | Cc1ccccc1N1CCN(c2ncnc3c2cnn3Cc2ccc(Cl)cc2)CC1 | 0.517 µM [falling, full curve, poor fit] | 
21 | CC(C)(C)OC(=O)N1CCC(CNC(=O)Nc2ccccc2)CC1 | 3.55 µM [rising, single point] | 
22 | CS(=O)(=O)Cc1ccc(C(=O)Nc2cccc(-c3nc4ccccc4[nH]3)c2)cc1 | 10 µM [falling, partial curve, poor fit] | 

Row | SMILES | AC50 [1] | AC50 [2]
23 | COCCn1c(=N)c(C(=O)NCCc2ccc(OC)cc2)cc2c(=O)n3cccc(C)c3nc21 | 0.631 µM [rising, partial curve, poor fit] | 
24 | Cc1ccc2[nH]cc(CCNC(=O)c3ccco3)c2c1 | 3.98 µM [rising, full curve, poor fit] | 
25 | COc1ccc(C2(CNC(=O)CCC(=O)O)CCCC2)cc1OC | 23.1 µM [rising, single point] | 
26 | NC(=S)N/N=C/c1ccc(-c2ccc([N+](=O)[O-])cc2)o1 | 35.5 µM [rising, single point] | 14.1 µM [falling, single point]
27 | Cc1ccc(NC(=S)Nc2ccc(C(C)C)cc2)cc1S(=O)(=O)N1CCCCCC1 | 25.9 µM [falling, partial curve, poor fit] | 
28 | CCOc1cc(C(=O)N2CCC(c3ccncc3)CC2)cc(OCC)c1OCC | 35.5 µM [falling, single point] | 
29 | O=C(CSCc1c(F)cccc1Cl)NCCc1ccccc1 | 7.08 µM [rising, full curve] | 
30 | Cc1nn(Cc2ccc(C(=O)Nc3nccs3)cc2)c(C)c1Cl | 1.41 µM [falling, full curve] | 
31 | CC(C)(C)c1cc(C(=O)NNS(=O)(=O)c2ccccc2)n[nH]1 | 2.82 µM [falling, single point] | 
32 | Cc1nc2ccccc2c(=O)n1/N=C/c1cn[nH]c1-c1ccccc1 | 0.891 µM [falling, full curve] | 
33 | O=C(CSc1nnc(CNc2ccc(Cl)cc2)o1)Nc1nc2ccccc2s1 | 0.1 µM [rising, full curve, poor fit] | 
34 | O=C(CSCc1cccc(Br)c1)N/N=C/c1ccc2c(c1)OCO2 | 14.1 µM [falling, partial curve, poor fit] | 
35 | CCNC(=S)N1CCc2cc(OC)c(OC)cc2C1COc1ccccc1OC (centres undefined) | 0.891 µM [rising, full curve, poor fit] | 
36 | C=CCn1c(CCNC(=O)c2ccccc2F)nnc1SCC(=O)Nc1nc(C)cs1 | 29.1 µM [falling, single point] | 
37 | O=C1/C(=C/c2ccsc2)N2CCC1CC2 | 5.62 µM [rising, single point] | 
38 | COc1ccc2c(c1OC)C(=O)N1N=C(c3ccccc3)CC21 (centres undefined) | 13 µM [falling, partial curve, poor fit] | 
39 | CCOc1ccccc1C1C2=C(COC2=O)Nc2cc3c(cc21)OCO3 (centres undefined) | 3.55 µM [rising, full curve, poor fit] | 7.08 µM [falling, partial curve]
40 | COCCNC(=S)N=Nc1c(O)[nH]c2ccc([N+](=O)[O-])cc12 | 6.31 µM [rising, single point] | 
41 | CCc1ccc2nc(NC(=O)C3CCN(c4ncnc5sc(C)c(C)c45)CC3)sc2c1 | 0.58 µM [rising, full curve, poor fit] | 
42 | CCCCNCCOCCSc1ccc(Cl)cc1 | 12.6 µM [falling, single point] | 
43 | CC(C)N(CCC(=O)c1ccc2ccccc2c1)Cc1ccccc1 | 13 µM [falling, partial curve] | 
44 | C/C(=N\NC(=O)c1cc(Br)ccc1O)c1cccs1 | 0.251 µM [falling, full curve] | 

Row | SMILES | AC50 [1] | AC50 [2]
45 | COc1ccc(-n2cc(C(=O)c3ccccc3O)cn2)cc1 | 5.62 µM [falling, partial curve] | 
46 | CCOC(=O)N1CCC(NC(=O)CN2C(=O)C(CC)Oc3ccc(C)cc32)CC1 (centres undefined) |  | 6.51 µM [rising, partial curve, poor fit]
47 | Cc1ccc(C(O)(C(=O)NN(C(=O)c2ccccc2)c2ccccc2)c2ccc(C)cc2)cc1 | 10.3 µM [falling, partial curve, poor fit] | 
48 | O=C(CSc1nc(C2CC2)nc2ccccc12)N1CCCCC1 | 35.5 µM [falling, single point] | 
49 | Cc1c(-c2ccccc2)c(=O)oc2cc(O)ccc12 | 11.2 µM [rising, partial curve] | 
50 | CCOC(=O)c1c(NC(=O)/C=C/C(=O)O)sc(C)c1-c1ccc(Cl)cc1 | 8.91 µM [falling, partial curve, poor fit] | 
51 | O=C(O)C=C(Br)Br | 35.5 µM [falling, partial curve, poor fit] | 
52 | O=C(CSc1ncn[nH]1)Nc1ccccc1Sc1ccccc1 | 0.164 µM [falling, full curve, poor fit] | 
53 | CCN1C(=O)/C(=C/c2ccc(C)s2)NC1=S | 5.8 µM [rising, partial curve, poor fit] | 
54 | CC(=O)c1c(C)nc2ccc([N+](=O)[O-])cc2c1-c1ccccc1 | 35.5 µM [falling, single point] | 
55 | COc1ccc(C2CC(=O)Nc3ccccc3S2(=O)=O)cc1OC (centres undefined) | 25.1 µM [falling, single point] | 
56 | O=C(Nc1ccc2ccccc2n1)c1ccccc1 | 5.01 µM [falling, full curve] | 
57 | CCOC(=O)c1ccc(NC(=O)CN2C(=O)CN(C(C)=O)C2=S)cc1 | 11.2 µM [falling, partial curve, poor fit] | 
58 | CCCSCC(=O)Nc1ncc2c(n1)-c1ccccc1CC2 | 12.6 µM [falling, single point] | 
59 | CC(=O)c1cccc(NC(=O)c2ccc(Br)o2)c1 | 2.82 µM [rising, single point] | 
60 | CC(C)c1ccc(NCCC(=O)c2cccs2)cc1 | 1.64 µM [rising, full curve] | 
61 | Cc1cccc(NC(=O)c2sc3nc(-c4ccccc4)cn3c2C)n1 | 18.4 µM [falling, single point] | 
62 | O=C(O)c1ccc(NC(=S)NC(=O)c2ccc(-c3ccccc3)cc2)cc1 | 7.08 µM [falling, partial curve] | 
63 | Cc1ccnc2c1ccc1ccccc12 | 2 µM [rising, partial curve] | 
64 | COc1ccc(NC(=S)N(CCc2ccc(OC)c(OC)c2)Cc2ccccn2)cc1 | 20 µM [rising, single point] | 
65 | O=C(Nc1c2c(nn1-c1ccc(Cl)cc1)CS(=O)(=O)C2)c1ccccc1F | 11.2 µM [falling, single point] | 
66 | Cc1ccc(C(O)(C(=O)NNc2ccc3ccccc3n2)c2ccc(C)cc2)cc1 | 29.1 µM [rising, single point] | 

By substructure: the compounds so far with fluorine
Row | SMILES | AC50 [1] | AC50 [2]
4 | O=C(/C=C/N1CCN(Cc2ccccc2)CC1)C(F)(F)F | 25.1 µM [rising, single point] | 
29 | O=C(CSCc1c(F)cccc1Cl)NCCc1ccccc1 | 7.08 µM [rising, full curve] | 
36 | C=CCn1c(CCNC(=O)c2ccccc2F)nnc1SCC(=O)Nc1nc(C)cs1 | 29.1 µM [falling, single point] | 
65 | O=C(Nc1c2c(nn1-c1ccc(Cl)cc1)CS(=O)(=O)C2)c1ccccc1F | 11.2 µM [falling, single point] | 
